Data: paper doi:10.1101/2025.03.07.642025, “The TONSL-MMS22L complex and FANCM form an interdependent complex on chromatin to counter replication stress” (bioRxiv, 2025)
These are yes or no findings as the source states them, for the method shown. In cells and extracts the contact can be indirect. Some results given as binding are weak or reduced against the parent protein; the word gives no strength. Where a sequence is shown, tags or fusion partners need not be part of it.

Experiments:
[1] = target: T1, Flag-MMS22L (human) (UniProt Q6ZRQ5); assay: co-IP; Flag antibody IP from HU-treated HeLa cells stably expressing Flag-TONSL or Flag-MMS22L; immunoblotting; cells without a Flag-tagged protein as controls
T1 sequence: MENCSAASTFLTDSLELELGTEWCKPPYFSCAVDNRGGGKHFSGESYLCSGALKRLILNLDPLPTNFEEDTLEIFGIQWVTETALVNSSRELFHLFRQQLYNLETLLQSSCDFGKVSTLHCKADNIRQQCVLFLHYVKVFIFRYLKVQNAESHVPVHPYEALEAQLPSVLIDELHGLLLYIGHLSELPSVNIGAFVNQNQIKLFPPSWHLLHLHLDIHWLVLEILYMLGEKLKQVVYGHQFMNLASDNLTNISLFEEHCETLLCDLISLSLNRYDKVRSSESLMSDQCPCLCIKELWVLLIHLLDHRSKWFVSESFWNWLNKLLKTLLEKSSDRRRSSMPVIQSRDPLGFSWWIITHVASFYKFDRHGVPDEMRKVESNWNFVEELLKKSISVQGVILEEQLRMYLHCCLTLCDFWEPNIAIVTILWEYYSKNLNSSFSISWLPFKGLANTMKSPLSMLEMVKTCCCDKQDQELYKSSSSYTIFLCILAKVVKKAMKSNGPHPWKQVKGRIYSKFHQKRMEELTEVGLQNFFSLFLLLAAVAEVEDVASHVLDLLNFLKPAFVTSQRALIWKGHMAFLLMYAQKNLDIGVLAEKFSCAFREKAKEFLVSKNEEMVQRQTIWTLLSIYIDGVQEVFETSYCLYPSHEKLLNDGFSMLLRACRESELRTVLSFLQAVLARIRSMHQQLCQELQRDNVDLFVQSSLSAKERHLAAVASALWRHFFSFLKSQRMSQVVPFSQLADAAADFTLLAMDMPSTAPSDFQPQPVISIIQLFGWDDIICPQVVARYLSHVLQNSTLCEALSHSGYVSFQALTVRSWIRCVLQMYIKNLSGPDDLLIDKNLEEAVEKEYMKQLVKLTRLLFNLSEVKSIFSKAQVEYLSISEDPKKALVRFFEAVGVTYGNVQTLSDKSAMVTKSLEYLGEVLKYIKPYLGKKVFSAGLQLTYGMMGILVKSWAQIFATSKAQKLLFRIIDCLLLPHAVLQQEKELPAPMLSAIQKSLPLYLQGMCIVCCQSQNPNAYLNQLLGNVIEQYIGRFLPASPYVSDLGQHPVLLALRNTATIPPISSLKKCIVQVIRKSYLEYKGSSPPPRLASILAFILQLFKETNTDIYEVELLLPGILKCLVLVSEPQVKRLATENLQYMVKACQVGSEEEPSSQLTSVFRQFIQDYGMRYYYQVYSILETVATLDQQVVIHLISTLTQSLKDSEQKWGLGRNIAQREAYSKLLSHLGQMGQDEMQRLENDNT

[2] = target: T2, Flag-TONSL (human) (UniProt Q96HA7); assay: as above
T2 sequence: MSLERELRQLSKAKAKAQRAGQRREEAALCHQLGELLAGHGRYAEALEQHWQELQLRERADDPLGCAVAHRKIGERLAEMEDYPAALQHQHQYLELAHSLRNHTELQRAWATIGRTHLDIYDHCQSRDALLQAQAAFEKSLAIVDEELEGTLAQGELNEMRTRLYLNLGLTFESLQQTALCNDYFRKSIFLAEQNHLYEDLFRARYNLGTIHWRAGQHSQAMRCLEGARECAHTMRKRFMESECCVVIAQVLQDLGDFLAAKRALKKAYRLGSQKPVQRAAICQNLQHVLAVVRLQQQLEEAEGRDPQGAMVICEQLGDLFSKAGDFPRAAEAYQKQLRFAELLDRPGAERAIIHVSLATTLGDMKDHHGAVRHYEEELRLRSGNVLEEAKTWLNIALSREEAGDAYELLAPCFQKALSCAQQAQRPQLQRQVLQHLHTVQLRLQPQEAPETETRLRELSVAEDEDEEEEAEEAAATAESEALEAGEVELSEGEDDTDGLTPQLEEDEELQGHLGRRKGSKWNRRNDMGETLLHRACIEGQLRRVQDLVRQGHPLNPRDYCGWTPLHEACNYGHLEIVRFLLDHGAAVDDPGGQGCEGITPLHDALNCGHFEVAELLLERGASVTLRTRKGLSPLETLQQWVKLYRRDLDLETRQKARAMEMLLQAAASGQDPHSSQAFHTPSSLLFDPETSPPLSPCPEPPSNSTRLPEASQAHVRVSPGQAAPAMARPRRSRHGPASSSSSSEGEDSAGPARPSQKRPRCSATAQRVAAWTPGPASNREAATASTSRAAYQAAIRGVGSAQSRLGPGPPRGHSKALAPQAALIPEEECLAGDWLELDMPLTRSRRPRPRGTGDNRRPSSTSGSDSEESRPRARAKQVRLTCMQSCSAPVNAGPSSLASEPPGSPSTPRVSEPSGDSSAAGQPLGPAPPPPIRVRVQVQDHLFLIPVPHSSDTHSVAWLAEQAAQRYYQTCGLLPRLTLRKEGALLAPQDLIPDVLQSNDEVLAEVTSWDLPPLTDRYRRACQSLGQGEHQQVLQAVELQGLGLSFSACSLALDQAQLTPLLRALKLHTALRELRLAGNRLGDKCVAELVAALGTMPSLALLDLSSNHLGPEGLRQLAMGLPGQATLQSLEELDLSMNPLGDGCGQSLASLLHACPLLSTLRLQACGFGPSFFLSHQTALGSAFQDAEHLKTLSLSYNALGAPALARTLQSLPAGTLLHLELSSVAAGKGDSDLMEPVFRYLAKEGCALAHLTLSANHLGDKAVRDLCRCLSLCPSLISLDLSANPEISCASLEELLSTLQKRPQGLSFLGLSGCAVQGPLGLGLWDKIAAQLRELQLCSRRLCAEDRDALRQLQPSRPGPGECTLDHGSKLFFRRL

binding [1]: binds
binding [2]: binds
B1: FANCA (protein, UniProt O15360 1-1455)
chain: MSDSWVPNSASGQDPGGRRRAWAELLAGRVKREKYNPERAQKLKESAVRLLRSHQDLNALLLEVEGPLCKKLSLSKVIDCDSSEAYANHSSSFIGSALQDQASRLGVPVGILSAGMVASSVGQICTAPAETSHPVLLTVEQRKKLSSLLEFAQYLLAHSMFSRLSFCQELWKIQSSLLLEAVWHLHVQGIVSLQELLESHPDMHAVGSWLFRNLCCLCEQMEASCQHADVARAMLSDFVQMFVLRGFQKNSDLRRTVEPEKMPQVTVDVLQRMLIFALDALAAGVQEESSTHKIVRCWFGVFSGHTLGSVISTDPLKRFFSHTLTQILTHSPVLKASDAVQMQREWSFARTHPLLTSLYRRLFVMLSAEELVGHLQEVLETQEVHWQRVLSFVSALVVCFPEAQQLLEDWVARLMAQAFESCQLDSMVTAFLVVRQAALEGPSAFLSYADWFKASFGSTRGYHGCSKKALVFLFTFLSELVPFESPRYLQVHILHPPLVPGKYRSLLTDYISLAKTRLADLKVSIENMGLYEDLSSAGDITEPHSQALQDVEKAIMVFEHTGNIPVTVMEASIFRRPYYVSHFLPALLTPRVLPKVPDSRVAFIESLKRADKIPPSLYSTYCQACSAAEEKPEDAALGVRAEPNSAEEPLGQLTAALGELRASMTDPSQRDVISAQVAVISERLRAVLGHNEDDSSVEISKIQLSINTPRLEPREHMAVDLLLTSFCQNLMAASSVAPPERQGPWAALFVRTMCGRVLPAVLTRLCQLLRHQGPSLSAPHVLGLAALAVHLGESRSALPEVDVGPPAPGAGLPVPALFDSLLTCRTRDSLFFCLKFCTAAISYSLCKFSSQSRDTLCSCLSPGLIKKFQFLMFRLFSEARQPLSEEDVASLSWRPLHLPSADWQRAALSLWTHRTFREVLKEEDVHLTYQDWLHLELEIQPEADALSDTERQDFHQWAIHEHFLPESSASGGCDGDLQAACTILVNALMDFHQSSRSYDHSENSDLVFGGRTGNEDIISRLQEMVADLELQQDLIVPLGHTPSQEHFLFEIFRRRLQALTSGWSVAASLQRQRELLMYKRILLRLPSSVLCGSSFQAEQPITARCEQFFHLVNSEMRNFCSHGGALTQDITAHFFRGLLNACLRSRDPSLMVDFILAKCQTKCPLILTSALVWWPSLEPVLLCRWRRHCQSPLPRELQKLQEGRQFASDFLSPEAASPAPNPDWLSAAALHFAIQQVREENIRKQLKKLDCEREELLVFLFFFSLMGLLSSHLTSNSTTDLPKAFHVCAAILECLEKRKISWLALFQLTESDLRLGRLLLRVAPDQHTRLLPFAFYSLLSYFHEDAAIREEAFLHVAVDMYLKLVQLFVAGDTSTVSPPAGRSLELKGQGNPVELITKARLFLLQLIPRCPKKSFSHVAELLADRGDCDPEVSAALQSRQQAAPDADLSQEPHLF
